Experimental data from PubChem BioAssay AID624415 (National Center for Advancing Translational Sciences (NCATS), 2012).
Among all 390,000 compounds or so, about 60 (0.02%) were called active. The inconclusive results got no clear call from the source; some entries with a clear call stand among them for comparison. No stated cut-off is given here; in the data, active means activity change below about -50%; inconclusive means between about -30% and that limit; inactive means weaker than that.
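Further: stimulus is agonist 54-4 at its EC80 concentration.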
On the % scale 0 is the no-effect control and ±100 the full control effect.

Sequences of proteins named here, by UniProt entry; tags and fusion partners are left off.
UniProt Q9GZU1, whole entry, looked up: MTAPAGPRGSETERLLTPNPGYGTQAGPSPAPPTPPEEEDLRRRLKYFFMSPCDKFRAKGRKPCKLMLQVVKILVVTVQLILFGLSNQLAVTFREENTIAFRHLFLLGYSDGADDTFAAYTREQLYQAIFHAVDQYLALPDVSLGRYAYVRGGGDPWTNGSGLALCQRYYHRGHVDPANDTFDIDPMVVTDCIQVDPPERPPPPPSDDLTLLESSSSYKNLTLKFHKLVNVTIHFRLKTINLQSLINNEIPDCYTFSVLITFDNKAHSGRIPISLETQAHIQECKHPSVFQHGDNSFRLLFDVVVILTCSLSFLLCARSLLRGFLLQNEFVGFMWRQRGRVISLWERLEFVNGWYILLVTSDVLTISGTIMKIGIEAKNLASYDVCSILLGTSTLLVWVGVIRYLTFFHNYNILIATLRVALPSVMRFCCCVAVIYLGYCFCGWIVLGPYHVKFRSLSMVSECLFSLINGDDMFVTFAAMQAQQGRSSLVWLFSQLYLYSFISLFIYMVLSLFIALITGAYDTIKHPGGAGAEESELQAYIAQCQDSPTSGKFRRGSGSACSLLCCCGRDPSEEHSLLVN

The compounds below were run against Mucolipin-1 (Homo sapiens) (UniProt Q9GZU1) (assay: qHTS for Inhibitors of the Human Mucolipin Transient Receptor Potential 1 (TRPML1)). Settings: TRPML1-inducible cells, Ca2+ dye fluorescence, FDSS; active compounds read low; inhibition of EC80 agonist-evoked calcium signal.
Method in brief: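 TRPML1-DL cells, Tet-induced overnight (~16 h, 37 °C) at 1,500 cells/well, were loaded with Ca8 no-wash dye plus quencher for 45-90 min at room temperature. Compounds were pinned during FDSS kinetic reading; agonist 54-4 at EC80 (4 uM final) then added.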
For Cc1noc(C)c1S(=O)(=O)Nc1cc(C(F)(F)F)ccc1N1CCOCC1, the activity change, negative = inhibition was inconclusive: -32.2%.
For CN1C(=O)c2ccc(N3CCCC3)cc2C1=O, the activity change, negative = inhibition was inactive: 2.28%.
For CCOC(=O)CCC(NC(=O)CC(=O)NC(CCC(=O)OCC)C(=O)OCC)C(=O)OCC (stereo not given), the activity change, negative = inhibition was inconclusive: -32.8%.
With O=C(CCC1N=C2c3ccccc3N=C(SCC(=O)NCC3CCCO3)N2C1=O)NCc1ccc(F)cc1 (stereo not given) the activity change, negative = inhibition was inconclusive: -33.7%.
For CCC(C)n1c(=O)c2sccc2n2c(CCCC(=O)N3CCC(C(N)=O)CC3)nnc12 (stereo not given), the activity change, negative = inhibition was inconclusive: -37.3%.
CC1=C(C(=O)OCC(C)C)C(c2cc3c(cc2Br)OCO3)NC(=O)N1C (stereo not given) was tested, and the activity change, negative = inhibition was inactive: -5.02%.
For Cc1cc(Nc2cccc(Cl)c2C)n2ncnc2n1, the activity change, negative = inhibition was inconclusive: -33.1%.
For COc1ccc(Cl)cc1C(=O)NCc1ccc2c(c1)OCO2, the activity change, negative = inhibition was inconclusive: -32.6%.
With O=C(O)/C=C/c1cccc(OCc2ccccc2)c1 the activity change, negative = inhibition was inconclusive: -35.8%.
For O=C(Nc1nc(-c2ccc(F)cc2)cs1)c1cnccn1, the activity change, negative = inhibition was inconclusive: -31.8%.
For CC(Sc1ccc2c(c1)OCCO2)C(=O)Nc1ncc(Cl)cc1Cl (stereo not given), the activity change, negative = inhibition was inactive: 3.4%.
With CCC(C(=O)Nc1cccc(-c2cn3cccnc3n2)c1)c1ccccc1 (stereo not given) the activity change, negative = inhibition was inconclusive: -48.2%.
For Cc1ccc(S(=O)(=O)N2CCN(S(=O)(=O)N3CCOCC3)CC2)cc1C, the activity change, negative = inhibition was inconclusive: -32.2%.
For CCCN(CCC)C(C)C(=O)NCC1(c2ccccc2)CCCC1 (stereo not given), the activity change, negative = inhibition was inconclusive: -40.4%.
In the case of CC(O)CNc1nc2c(c(=O)n(Cc3ccc(Cl)c(Cl)c3)c(=O)n2C)n1C (stereo not given), the activity change, negative = inhibition is reported as inconclusive: -34.2%.
COCCN(Cc1cc2cc(C)ccc2n2nnnc12)C(=S)Nc1ccccc1C was tested, and the activity change, negative = inhibition was inconclusive: -30.9%.
In the case of CCn1c(=O)n(CC(=O)NCC2CCCO2)c(=O)c2c3c(sc21)COC(C)(C)C3 (stereo not given), the activity change, negative = inhibition is reported as inconclusive: -38.3%.
O=C(Nc1nccs1)c1cc(-c2ccco2)nc2ccccc12 was tested, and the activity change, negative = inhibition was inactive: 17.4%.
In the case of O=C(Nc1ccc(C(=O)OCc2cc(=O)n3c4c(sc3n2)CCCC4)cc1)c1ccc(F)cc1, the activity change, negative = inhibition is reported as inconclusive: -35.8%.
For COc1cc(OC)cc(C(=O)NCC(=O)Nc2ccc(-c3ccccc3)cc2)c1, the activity change, negative = inhibition was inactive: -12.1%.
In the case of C[C@]12CC(O)C3C(CCC4=CC(=O)CC[C@@]43C)C1CCC2c1csc(-c2ccccc2)n1 (stereo not given in full), the activity change, negative = inhibition is reported as inconclusive: -33%.
O=C(Nc1ccccc1F)NC1CCCc2ccccc21 (stereo not given) was tested, and the activity change, negative = inhibition was inconclusive: -33.8%.
In the case of Cc1ccc(C)c(OCC(=O)N(Cc2ccccc2)c2c(N)n(Cc3ccccc3)c(=O)[nH]c2=O)c1, the activity change, negative = inhibition is reported as inconclusive: -32.1%.
With O=C(O)c1cc2n(n1)C(C(F)(F)F)CC(c1ccco1)N2 (stereo not given) the activity change, negative = inhibition was inconclusive: -38.5%.
CCSc1cc(N2CCCC2)nc(-c2ccc(Cl)cc2)n1 was tested, and the activity change, negative = inhibition was inconclusive: -39.1%.
For COC(=O)c1ccc(Cl)cc1NC(=O)N1CC=C(c2c[nH]c3ccccc23)CC1, the activity change, negative = inhibition was inactive: 0.523%.
With CN1CCN(c2ccc(NC(=O)N3CCc4ccccc43)cc2)CC1 the activity change, negative = inhibition was inconclusive: -36%.
In the case of COc1ccc(NC(=O)CSc2nc3c(c(=O)n2-c2ccc(F)cc2)SCC3)c(OC)c1, the activity change, negative = inhibition is reported as inconclusive: -38.4%.
With Nc1[nH]c(=O)nc(Nc2ccccc2)c1N=O the activity change, negative = inhibition was inconclusive: -34.8%.
For O=C(Nc1cc(Br)ccc1O)c1cc(-c2cccs2)on1, the activity change, negative = inhibition was inconclusive: -31.4%.
In the case of S=c1[nH]cc(-c2ccccc2)n1-c1ccccc1Cl, the activity change, negative = inhibition is reported as inconclusive: -35.3%.
CCN(C(=O)Cn1c(=O)nc(-c2ccccc2)c2cc(Cl)ccc21)c1cccc(C)c1 was tested, and the activity change, negative = inhibition was inconclusive: -33.7%.
With COc1ccc(N/N=C(\C#N)C(=N)SCc2ccccc2)cc1 the activity change, negative = inhibition was inactive: -2.76%.
In the case of Cc1ccc(C)c(N2C(=O)N(C)c3ccccc3S2(=O)=O)c1, the activity change, negative = inhibition is reported as inactive: -8.05%.
For Cc1c(S(=O)(=O)N2CCN(c3ccccc3)CC2)c(=O)n(C)c(=O)n1C, the activity change, negative = inhibition was inconclusive: -30.2%.
With COc1ccc(CNC(=O)c2ccc(Cn3cc(Br)cn3)o2)cc1 the activity change, negative = inhibition was inconclusive: -31.8%.
For Cc1ccc(NC(=O)C2CCCCC2C(=O)O)cc1C (stereo not given), the activity change, negative = inhibition was inconclusive: -34.4%.
COc1ccc(NC(=O)c2ccccc2-c2ccccc2)c(C)c1 was tested, and the activity change, negative = inhibition was inconclusive: -32.7%.
CN(Cc1ccc(F)cc1)S(=O)(=O)c1nnc(NC(=O)c2ccccc2Br)s1 was tested, and the activity change, negative = inhibition was inconclusive: -37.6%.
With CSc1ncc(Cl)c(C(=O)Nc2cccc3ccccc23)n1 the activity change, negative = inhibition was inconclusive: -32.4%.
For Cc1ccc(C)c(N2CCN(C(=O)CCc3nc(-c4ccccc4Cl)no3)CC2)c1, the activity change, negative = inhibition was inactive: 9.35%.
With COc1cccc2c1cc1c(=O)n(CC(=O)N3CCN(c4cccc(C)c4)C(C)C3)nc(C)n12 (stereo not given) the activity change, negative = inhibition was inactive: 45.6%.
In the case of CCCS(=O)(=O)NC(=O)C1(C)CCCN(C(=O)c2c(C)noc2C)C1 (stereo not given), the activity change, negative = inhibition is reported as inconclusive: -48.2%.
With COc1ccc(-c2nc(Cn3c(SCc4ccccc4F)nc4ccncc43)c(C)o2)cc1 the activity change, negative = inhibition was inactive: 8.56%.
With Cc1ccc(S(=O)(=O)NCCCN2CCOCC2)cc1C the activity change, negative = inhibition was inconclusive: -34.6%.
In the case of CN(Cc1ccccc1NS(=O)(=O)c1ccc2ccccc2c1)C1CCCCC1, the activity change, negative = inhibition is reported as inconclusive: -39.4%.
N#C/C(C(=O)c1ccccc1)=C1/CCCCCN1 was tested, and the activity change, negative = inhibition was inactive: -14%.
With CC(C)(C)NC(=O)CSCc1ccc(Br)cc1 the activity change, negative = inhibition was inconclusive: -33%.
Cc1ccc(-c2sc(-c3ccccc3)nc2CC(=O)Nc2ccccc2F)cc1 was tested, and the activity change, negative = inhibition was inconclusive: -38.2%.
For COc1ccc(C2CC(=O)NC(NC(=O)c3ccc(Br)cc3)=N2)c(OC)c1OC (stereo not given), the activity change, negative = inhibition was inactive: -6.82%.
With Cc1cc2c(SCC(=O)NC3CCCCC3)ncnc2s1 the activity change, negative = inhibition was inconclusive: -38.7%.
Cc1cccc(NC(=O)C2CCN(c3nc4ccccc4[nH]3)CC2)c1C was tested, and the activity change, negative = inhibition was inconclusive: -30.4%.
For O=C(C1=C[C@H](c2ccc(Br)cc2)C[C@H](OCCCCO)O1)N1CCOCC1, the activity change, negative = inhibition was inconclusive: -40.7%.
For CCCCc1ccc(NC(=O)C(=O)NCCN2CCN(Cc3ccc([N+](=O)[O-])cc3)CC2)cc1, the activity change, negative = inhibition was inconclusive: -30%.
O=C(Cn1ncc2c3ccccc3n(Cc3cccc(Cl)c3)c2c1=O)NCc1cccs1 was tested, and the activity change, negative = inhibition was inconclusive: -31.6%.
